Data as given in patent US20230416726A1 (University of Washington, published 2023).
Substitutions are numbered along the chain they refer to. Names may count otherwise. These are yes or no findings as the source states them, for the method shown. Some binding calls cover weakened binding; strength is not graded here.

Sequences of proteins named here, by UniProt entry; tags and fusion partners are left off. Residues count along the entry.
UniProt Q9NZQ7, residues 19-239: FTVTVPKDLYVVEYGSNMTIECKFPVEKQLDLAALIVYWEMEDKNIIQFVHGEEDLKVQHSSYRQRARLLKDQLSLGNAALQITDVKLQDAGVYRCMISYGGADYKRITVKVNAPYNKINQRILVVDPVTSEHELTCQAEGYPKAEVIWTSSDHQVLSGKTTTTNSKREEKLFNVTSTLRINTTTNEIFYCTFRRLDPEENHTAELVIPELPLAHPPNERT
UniProt P04629, residues 36-382: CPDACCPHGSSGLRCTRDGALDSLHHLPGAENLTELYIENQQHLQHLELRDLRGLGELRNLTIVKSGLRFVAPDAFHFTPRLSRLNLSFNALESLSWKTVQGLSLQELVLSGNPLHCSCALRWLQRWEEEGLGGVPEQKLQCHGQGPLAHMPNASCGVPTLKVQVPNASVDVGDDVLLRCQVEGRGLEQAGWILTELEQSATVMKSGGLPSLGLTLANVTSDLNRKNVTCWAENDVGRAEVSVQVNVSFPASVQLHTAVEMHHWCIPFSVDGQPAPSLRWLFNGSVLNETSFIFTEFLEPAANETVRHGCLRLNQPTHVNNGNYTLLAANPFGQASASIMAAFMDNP

Tests used:
[1] = target: programmed cell death ligand 1 (PD-L1) (UniProt Q9NZQ7); assay: BLI, max binding signal versus PD-L1 concentration
[2] = target: programmed cell death ligand 1 (PD-L1) (UniProt Q9NZQ7); assay: BLI (FIG. 3A-C)
[3] = target: Tropomyosin receptor kinase A (TrkA) (UniProt P04629); assay: BLI, biotinylated TrkA on streptavidin tips, binder in solution, max signal versus binder concentration
[4] = target: Tropomyosin receptor kinase A (TrkA) (UniProt P04629); assay: BLI, biotinylated TrkA on streptavidin tips
[5] = target: Tropomyosin receptor kinase A (TrkA) (UniProt P04629); assay: BLI, max binding signal versus concentration
[6] = target: programmed cell death ligand 1 (PD-L1) (UniProt Q9NZQ7); assay: Yeast display flow cytometry of a clonal population; binding signal PE-H normalized to expression FITC-H

B1: pdl1_inp_1 (purified from E. coli) (designed binder)
chain: DLEEFFEECLKEAEEVRKEVLEGKARIQIKESVRKEDPEGGTYVCGVISLGPKGGKFHVVFHKEDPEGKEETLARFEFKVEGGKVELLELKSKDPELKKLAEKYAEKLLE
notes: Expressed as a monomer; Tested by BLI; not shown: C-terminal SNAC tag and 6xHis tag from the modified pET29b+ vector
- binding [1]: binds
- binding [2]: binds

B2: trkA_56 (designed binder, not shown: small tags and cut ends)
chain: DLDIIRRAAAELKRYEEKAEEFKEHLFKQVVRLIVTPEYQANPEKLEEVIQKIKDLEEEVEKKKEELFKEVVRAIVTGDHALAERVIERARELIEEIEKKKKEISEEVELG
- binding [3]: binds
- binding [4]: binds
- binding [5]: binds

B3: trkA_hal_1 F27R (designed binder)
single chain: B2 chain with F27R
- binding [3]: binds

B4: trkA_hal_1 F68R (designed binder)
single chain: B2 chain with F68R
- binding [3]: binds

B5: pdl1_inp_1 displayed on yeast (designed binder, not shown: large carriers)
chain: B1 chain
- binding [6]: binds
